Measurements published in paper PMC4154870, “The Cofilin Phosphatase Slingshot Homolog 1 (SSH1) Links NOD1 Signaling to Actin Remodeling” (PLoS Pathogens, 2014).
Changes are numbered by the printed parent chain. No constants are given. Whether binding was seen depends on the method and setting. In cells and extracts the contact can be indirect. Some entries that bind do so weakly or less than the wild type. Sequences can lack the tags named with a protein. Blank lines part the entries; values can stand above or below the molecule they belong to.

The chains behind the UniProt entries cited, without tags or fusion partners.
UniProt Q9HC29: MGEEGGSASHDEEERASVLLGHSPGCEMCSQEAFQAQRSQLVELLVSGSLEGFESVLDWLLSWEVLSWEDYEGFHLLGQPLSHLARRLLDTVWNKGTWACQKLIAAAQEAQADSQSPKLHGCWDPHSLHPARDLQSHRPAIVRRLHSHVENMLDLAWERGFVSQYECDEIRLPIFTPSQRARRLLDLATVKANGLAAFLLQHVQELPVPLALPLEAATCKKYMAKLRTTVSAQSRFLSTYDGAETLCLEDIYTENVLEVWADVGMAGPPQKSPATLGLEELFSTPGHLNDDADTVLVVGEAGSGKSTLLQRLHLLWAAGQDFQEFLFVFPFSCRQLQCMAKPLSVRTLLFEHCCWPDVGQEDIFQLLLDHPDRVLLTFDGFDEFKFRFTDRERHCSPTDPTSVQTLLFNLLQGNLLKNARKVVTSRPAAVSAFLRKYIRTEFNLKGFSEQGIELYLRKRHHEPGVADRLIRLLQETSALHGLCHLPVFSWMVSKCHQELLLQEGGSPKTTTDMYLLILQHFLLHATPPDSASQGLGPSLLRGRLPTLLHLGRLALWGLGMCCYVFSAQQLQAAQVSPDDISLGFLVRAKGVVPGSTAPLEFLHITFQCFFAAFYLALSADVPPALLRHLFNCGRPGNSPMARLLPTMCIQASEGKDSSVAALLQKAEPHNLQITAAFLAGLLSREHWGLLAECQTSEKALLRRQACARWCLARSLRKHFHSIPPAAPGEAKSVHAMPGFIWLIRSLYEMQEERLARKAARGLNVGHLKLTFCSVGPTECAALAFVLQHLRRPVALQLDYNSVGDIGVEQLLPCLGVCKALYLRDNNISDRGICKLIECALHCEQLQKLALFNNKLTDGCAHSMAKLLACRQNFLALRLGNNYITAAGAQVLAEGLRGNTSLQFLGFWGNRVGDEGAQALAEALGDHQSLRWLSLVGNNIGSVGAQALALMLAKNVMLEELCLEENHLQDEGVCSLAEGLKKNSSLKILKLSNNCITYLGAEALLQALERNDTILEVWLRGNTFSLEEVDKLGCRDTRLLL

How the values were obtained:
[1] = target: T1, Flag-SSH1 (slingshot homolog 1, cofilin phosphatase) (human) (UniProt Q8WYL5); assay: co-IP; HEK293T cells transiently transfected with SSH1 and NOD1 or NOD2 plasmids for 24 h; Flag-SSH1 precipitated with a Flag-specific antibody; also a kinetic with 500 nM TriDAP for the indicated times
T1 sequence: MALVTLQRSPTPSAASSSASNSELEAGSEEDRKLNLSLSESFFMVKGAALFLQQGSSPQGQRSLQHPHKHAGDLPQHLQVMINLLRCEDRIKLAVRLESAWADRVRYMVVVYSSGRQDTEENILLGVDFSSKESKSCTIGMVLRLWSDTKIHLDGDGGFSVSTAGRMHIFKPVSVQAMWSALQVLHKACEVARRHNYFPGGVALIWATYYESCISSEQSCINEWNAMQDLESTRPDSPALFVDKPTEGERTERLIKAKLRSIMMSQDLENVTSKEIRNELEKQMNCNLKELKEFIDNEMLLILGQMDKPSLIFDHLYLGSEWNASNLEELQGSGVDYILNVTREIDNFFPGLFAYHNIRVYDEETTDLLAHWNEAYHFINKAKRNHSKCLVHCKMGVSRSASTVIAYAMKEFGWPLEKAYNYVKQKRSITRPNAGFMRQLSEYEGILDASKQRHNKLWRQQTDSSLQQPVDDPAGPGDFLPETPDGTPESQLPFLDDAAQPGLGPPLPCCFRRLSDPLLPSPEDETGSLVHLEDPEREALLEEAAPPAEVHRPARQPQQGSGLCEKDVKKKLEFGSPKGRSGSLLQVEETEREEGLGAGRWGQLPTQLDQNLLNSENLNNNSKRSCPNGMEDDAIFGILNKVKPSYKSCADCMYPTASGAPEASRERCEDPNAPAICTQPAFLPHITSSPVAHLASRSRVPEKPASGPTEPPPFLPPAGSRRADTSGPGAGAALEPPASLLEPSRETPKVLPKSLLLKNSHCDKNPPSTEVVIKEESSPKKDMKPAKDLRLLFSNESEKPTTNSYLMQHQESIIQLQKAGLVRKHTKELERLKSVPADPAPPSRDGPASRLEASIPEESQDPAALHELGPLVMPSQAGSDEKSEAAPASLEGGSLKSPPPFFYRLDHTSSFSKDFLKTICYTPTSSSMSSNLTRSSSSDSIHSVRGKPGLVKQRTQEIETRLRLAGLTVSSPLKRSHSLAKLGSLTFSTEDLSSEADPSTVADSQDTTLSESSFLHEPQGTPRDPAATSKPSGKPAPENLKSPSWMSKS

[2] = target: T2, SSH1 C393S (phosphatase-dead mutant) (human) (UniProt Q8WYL5); assay: proximity ligation; in situ PLA (Duolink) in transiently transfected HeLa cells, fixed 24 h after transfection; rabbit GFP-specific and mouse Flag-specific primary antibodies; spot area per cell quantified by automated microscopy
T2 sequence: T1 sequence with C393S

[3] = target: T3, GFP-SSH1 (human, UniProt Q8WYL5 1-1049); assay: as above
T3 construct: Slingshot homolog 1 (SSH1); also called EGFP-SSH1; WT SSH1; source: HeLa, transiently transfected, in fixed cells
T3 sequence (looked up): T1 sequence

- binding [1]: binds
Molecule: NOD2 (from UniProt Q9HC29 1-1040) (receptor)

- binding [1]: binds
B1: NOD1 (myc tagged human NOD1) (receptor, UniProt Q9Y239 1-953)
chain: MEEQGHSEMEIIPSESHPHIQLLKSNRELLVTHIRNTQCLVDNLLKNDYFSAEDAEIVCACPTQPDKVRKILDLVQSKGEEVSEFFLYLLQQLADAYVDLRPWLLEIGFSPSLLTQSKVVVNTDPVSRYTQQLRHHLGRDSKFVLCYAQKEELLLEEIYMDTIMELVGFSNESLGSLNSLACLLDHTTGILNEQGETIFILGDAGVGKSMLLQRLQSLWATGRLDAGVKFFFHFRCRMFSCFKESDRLCLQDLLFKHYCYPERDPEEVFAFLLRFPHVALFTFDGLDELHSDLDLSRVPDSSCPWEPAHPLVLLANLLSGKLLKGASKLLTARTGIEVPRQFLRKKVLLRGFSPSHLRAYARRMFPERALQDRLLSQLEANPNLCSLCSVPLFCWIIFRCFQHFRAAFEGSPQLPDCTMTLTDVFLLVTEVHLNRMQPSSLVQRNTRSPVETLHAGRDTLCSLGQVAHRGMEKSLFVFTQEEVQASGLQERDMQLGFLRALPELGPGGDQQSYEFFHLTLQAFFTAFFLVLDDRVGTQELLRFFQEWMPPAGAATTSCYPPFLPFQCLQGSGPAREDLFKNKDHFQFTNLFLCGLLSKAKQKLLRHLVPAAALRRKRKALWAHLFSSLRGYLKSLPRVQVESFNQVQAMPTFIWMLRCIYETQSQKVGQLAARGICANYLKLTYCNACSADCSALSFVLHHFPKRLALDLDNNNLNDYGVRELQPCFSRLTVLRLSVNQITDGGVKVLSEELTKYKIVTYLGLYNNQITDVGARYVTKILDECKGLTHLKLGKNKITSEGGKYLALAVKNSKSISEVGMWGNQVGDEGAKAFAEALRNHPSLTTLSLASNGISTEGGKSLARALQQNTSLEILWLTQNELNDEVAESLAEMLKVNQTLKHLWLIQNQITAKGTAQLADALQSNTGITEICLNGNLIKPEEAKVYEDEKRIICF

- binding [2]: binds
- binding [3]: binds
B2: Flag-NOD1 (receptor, human, UniProt Q9Y239 1-953, looked up)
chain: B1 chain
notes: NOD1; the Flag-tagged plasmid is not described in the methods; source: HeLa, transiently transfected, in fixed cells
